{"source": "PubChem BioAssay AID1259415", "about": "(National Center for Advancing Translational Sciences (NCATS), 2018)", "note": "Hit rate of the full screen: of about 410,000 compounds, about 18,000 (4.4%) were called active. The shares of active, inactive and inconclusive entries below differ from those in the screen. Cut-off read from the data, not from the text of the source: active = activity change below about -60%; inconclusive = no clear call, values can overlap the other calls; inactive = above about -39%. % is set by controls: 0 for no effect and ±100 for the full control effect."}
{"assay": "qHTS Assay for inhibitors of the human cytomegalovirus (HCMV)", "conditions": "HFF cells, HCMV-luciferase reporter, 72 h; at 57.5 µM; hits give low values", "outline": "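Luciferase read-out from HCMV-luciferase-infected HFFs (MOI 1 PFU/cell) 72 h post infection at 37C; compounds added after 16 h cell attachment; activity normalized between buffer-only basal and Salinomycin (10uM) inhibitor controls.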"}
{"molecule": "Cc1cc(C)c(S(=O)(=O)/N=C2\\C=C(Nc3ccc(C(=O)O)cc3)C(=O)c3ccccc32)c(C)c1", "activity change, negative = inhibition": "active: -85.2%"}
{"molecule": "COc1cccc(-c2nn(C)c3sc(C(=O)NCCc4cccc(C)c4)cc23)c1", "activity change, negative = inhibition": "active: -68.7%"}
{"molecule": "CCOc1ccccc1CN1CCNC(=O)C1CC(=O)NCc1nccn1CC", "note": "(stereo not given)", "activity change, negative = inhibition": "active: -67.4%"}
{"molecule": "CCc1cccc(NC(=O)CSc2n[nH]c(-c3ccccc3Cl)n2)c1", "activity change, negative = inhibition": "inconclusive: -41%"}
{"molecule": "Cc1ccc(CCNC(=O)c2nn(C)c3c2CS(=O)(=O)c2ccccc2-3)cc1", "activity change, negative = inhibition": "inconclusive: -52.1%"}
{"molecule": "CC[C@H](C)[C@H](NC(N)=O)C(=O)OCC(=O)NCc1ccc(Cl)cc1", "activity change, negative = inhibition": "inconclusive: -50.3%"}
{"molecule": "O=C(Nc1ccc2nc(SCCOc3ccccc3Cl)sc2c1)c1ccco1", "activity change, negative = inhibition": "active: -70%"}
{"molecule": "COCCn1c(SCc2cccc(F)c2)nc2cc(C(=O)OC)ccc2c1=O", "activity change, negative = inhibition": "inconclusive: -44.9%"}
{"molecule": "CCN(CC)S(=O)(=O)c1ccc(O)c(NS(=O)(=O)c2ccccc2F)c1", "activity change, negative = inhibition": "inconclusive: -49.2%"}
{"molecule": "CN(C)C(=O)c1cn(-c2ccccc2)nc1-c1cc2ccccc2o1", "activity change, negative = inhibition": "inconclusive: -46.5%"}
{"molecule": "N#Cc1ccc(OCC(=O)Nc2nc(-c3ccccn3)cs2)cc1", "activity change, negative = inhibition": "inconclusive: -42.7%"}
{"molecule": "Cc1ccc(-c2csc3nnc(SCC(=O)Nc4nsc(-c5ccccc5)n4)n23)cc1", "activity change, negative = inhibition": "inconclusive: -58.7%"}
{"molecule": "COc1ccccc1Nc1c2c(nc3ccc(NC(=O)c4ccc(OC)c(OC)c4)cc13)CCCC2", "activity change, negative = inhibition": "active: -98.7%"}
{"molecule": "C/C(=N\\NC(=O)c1ccccc1Cl)c1ccccn1", "activity change, negative = inhibition": "active: -96.7%"}
{"molecule": "COc1ccc(CCNC(=O)c2ccc3c(c2)CCN3S(=O)(=O)c2ccccc2)cc1OC", "activity change, negative = inhibition": "inconclusive: -45.7%"}
{"molecule": "CCC(C)(C)C1CCc2nc3ccccc3c(C(=O)OC(C)C(=O)Nc3c(C)n(C)n(-c4ccccc4)c3=O)c2C1", "note": "(stereo not given)", "activity change, negative = inhibition": "inconclusive: -50.4%"}
{"molecule": "COc1ccc(NC2CCCN(C(=O)c3cccc(C(F)(F)F)c3)C2)cc1OC", "note": "(stereo not given)", "activity change, negative = inhibition": "inconclusive: -46.5%"}
{"molecule": "C[C@@H](NC(=O)c1nc[nH]c1C(=O)NCC(=O)OCc1ccccc1)c1ccccc1", "activity change, negative = inhibition": "inconclusive: -46.7%"}
{"molecule": "CCCCN(C=O)c1c(CC)nc2c(OCc3ccccc3C(=O)OC)cccn12", "activity change, negative = inhibition": "inconclusive: -45.5%"}
{"molecule": "COc1ccc(CC(=O)OCC(=O)Nc2c(C)n(C)n(-c3ccccc3)c2=O)cc1", "activity change, negative = inhibition": "inconclusive: -40.6%"}
{"molecule": "COc1ccccc1NC(=O)CSc1nnc(C2CCCCC2)n1-c1ccccc1", "activity change, negative = inhibition": "inconclusive: -44%"}
{"molecule": "O=C(NC(=S)Nc1ccc(CN2CCOCC2)cc1)c1ccc(-c2ccc(Cl)cc2)o1", "activity change, negative = inhibition": "inactive: -28.2%"}
{"molecule": "CC1(C)C(=O)N(c2ccccc2)C(=O)c2ccccc21", "activity change, negative = inhibition": "inconclusive: -48.2%"}
{"molecule": "CCCN1CCN(CCCNC(=O)c2cc3c(=O)[nH]c4ccc(C)cc4c3s2)CC1", "activity change, negative = inhibition": "active: -101%"}
{"molecule": "COc1nc(Nc2nc3ccccc3c(=O)[nH]2)nc2ccc(C)cc12", "activity change, negative = inhibition": "active: -100%"}
{"molecule": "Cc1ccc(C(=O)NCc2ccc3c(c2)CCN3C(=O)c2ccc(C)cc2)cc1", "activity change, negative = inhibition": "active: -63.8%"}
{"molecule": "COCCNC(=O)c1ccc(-n2c(-c3ccccc3)cc3c2CCC(C)C3)cc1", "note": "(stereo not given)", "activity change, negative = inhibition": "active: -101%"}
{"molecule": "COCCCNC(=O)c1c(-c2ccccc2)c(-c2ccccc2)nn(C)c1=O", "activity change, negative = inhibition": "inconclusive: -48.4%"}
{"molecule": "Cc1ccc(C(=O)Nc2ccc3ncccc3c2)cc1", "activity change, negative = inhibition": "active: -63.6%"}
{"molecule": "COC(=O)c1ccc(NC(=O)C2CCN(C(=O)c3cc(OC)c(OC)c(OC)c3)CC2)cc1", "activity change, negative = inhibition": "active: -101%"}
{"molecule": "COc1ccc(CCNC(=O)CN2C(=O)COc3ccc(C)cc32)cc1OC", "activity change, negative = inhibition": "inactive: -2.75%"}
{"molecule": "Cc1cccc(/C=C/c2nc3ccccc3c(=O)n2Cc2ccccc2)c1", "activity change, negative = inhibition": "active: -83.1%"}
{"molecule": "CCCCN(CC)CCCNC(=O)CN1C(=O)CSc2ccc(S(=O)(=O)N3CCOCC3)cc21", "activity change, negative = inhibition": "inconclusive: -58.1%"}
{"molecule": "CCOc1ccc(NC(=S)NC(C)c2cccs2)cc1", "note": "(stereo not given)", "activity change, negative = inhibition": "inconclusive: -49.4%"}
{"molecule": "C=CCNc1ncnc2sc(SC)nc12", "activity change, negative = inhibition": "inconclusive: -46.1%"}
{"molecule": "COc1ccc(CCn2c(-c3ccc(Cl)cc3)n[nH]c2=S)cc1OC", "activity change, negative = inhibition": "inactive: -24.1%"}
{"molecule": "Cc1ccc(Nc2nc(CSc3nnc(-c4ccncc4)n3-c3ccccc3C)cs2)cc1", "activity change, negative = inhibition": "active: -86.5%"}
{"molecule": "COC(=O)c1c(/N=C/N(C)C)sc2c1CCN(c1ncc(C(F)(F)F)cc1Cl)C2", "activity change, negative = inhibition": "inconclusive: -42.9%"}
{"molecule": "O=C(Nc1nc(-c2cccnc2)cs1)c1cccc([N+](=O)[O-])c1", "activity change, negative = inhibition": "inconclusive: -58.3%"}
{"molecule": "COc1ccccc1C(=O)Nc1cc2cc(Br)ccc2oc1=O", "activity change, negative = inhibition": "inactive: 109%"}
{"molecule": "CCC(C)c1ccc(NS(=O)(=O)c2c(C)[nH]c(=O)[nH]c2=O)cc1", "note": "(stereo not given)", "activity change, negative = inhibition": "inconclusive: -40%"}
{"molecule": "CCn1c(CC(=O)Nc2ccccc2OC)nnc1SCC(=O)Nc1ccccc1F", "activity change, negative = inhibition": "inconclusive: -43.8%"}
{"molecule": "Cc1onc(-c2ccccc2Cl)c1C(=O)NC(=S)Nc1ccccc1F", "activity change, negative = inhibition": "inconclusive: -43.5%"}
{"molecule": "CCOc1ccc(Nc2cc(C)nc3c(C)cccc23)cc1", "activity change, negative = inhibition": "active: -76.3%"}
{"molecule": "N=c1c(S(=O)(=O)c2ccccc2)cc2c(=O)n3ccccc3nc2n1CCCN1CCOCC1", "activity change, negative = inhibition": "inconclusive: -52.8%"}
{"molecule": "CN(Cc1ccccc1F)c1cc2c(c3c1ccn3C)C1CCC2C1", "note": "(stereo not given)", "activity change, negative = inhibition": "inactive: 0.618%"}
{"molecule": "O=C(CSc1nc(=O)n(Cc2ccco2)c2c1CCC2)Nc1cccc(F)c1", "activity change, negative = inhibition": "inactive: -38.7%"}
{"molecule": "COc1cc(CC2COC(=O)C2(O)Cc2ccc(O)c(OC)c2)ccc1O", "note": "(stereo not given)", "activity change, negative = inhibition": "inconclusive: -44.5%"}
{"molecule": "O=C(COc1cccc2cccnc12)N1CCc2ccccc21", "activity change, negative = inhibition": "inconclusive: -55.9%"}
{"molecule": "Cc1cc(=O)[nH]c(NN=Cc2c(Cl)cccc2Cl)n1", "activity change, negative = inhibition": "inconclusive: -51.2%"}
{"molecule": "COc1ccc([N+](=O)[O-])cc1NC(=O)CCN1CCN(C)CC1", "activity change, negative = inhibition": "inconclusive: -49.2%"}
{"molecule": "Oc1nc(-c2ccc(Cl)cc2)n2ccncc12", "activity change, negative = inhibition": "inconclusive: -53.4%"}
{"molecule": "COCCOC(=O)c1[nH]c2c(c1C)C(=O)CC(c1ccc(OC)c(OC)c1)C2", "note": "(stereo not given)", "activity change, negative = inhibition": "inconclusive: -41.3%"}
{"molecule": "CCCCC(=O)O[C@H]1CC[C@H]2[C@@H]3CCc4cc(O)ccc4[C@H]3CC[C@]12C", "activity change, negative = inhibition": "inconclusive: -57.1%"}
{"molecule": "COc1ccccc1/C=C\\C=N\\NC(=O)CCn1nnc2ccccc21", "activity change, negative = inhibition": "inconclusive: -50.7%"}
